In PubChem BioAssay AID493014 (National Center for Advancing Translational Sciences (NCATS), 2011):
Some of the results follow. Further columns of the screen follow, without active or inactive calls. The list favours compounds with an active or inconclusive main result. Words in brackets tell the shape of the fitted curve; partial curves, single points and poor fits give uncertain potencies.

Assay: qHTS Assay to Find Inhibitors of Chronic Active B-Cell Receptor Signaling
Details: ABC-DLBCL IkBa-CBG/CBR reporter, luminescence ratio (green luciferase fused to IkBa over red control in TMD8 lymphoma cells), 4 h
Method in brief: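 TMD8 human ABC-DLBCL cells with doxycycline-inducible IκBα–green luciferase fusion and unfused red luciferase, in 0.5% FBS medium; compounds up to 46 uM, 4 h at 37C. Green/red luminescence ratio, filter-overlap corrected, fitted to concentration-response curves.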

[1] = measured here: CBR red luminescence, cell number
[2] = measured here: IkBa-CBG green luminescence

| SMILES | AC50 [1] | AC50 [2] |
| --- | --- | --- |
| CC(C)(C)N(NC(=O)Nc1ccccc1)C(=O)c1ccccc1Cl | 0.891 µM [falling, full curve, poor fit] | – |
| Cc1ccc(-c2csc3ncnc(OCC(=O)NC(=O)NCc4ccco4)c23)cc1 | 12.6 µM [falling, partial curve, poor fit] | – |
| CC(C)CN(C(=O)COC(=O)C12CC3CC(CC(C3)C1)C2)c1c(N)n(Cc2ccccc2)c(=O)[nH]c1=O | 0.651 µM [rising, full curve] | – |
| NC(N)=Nc1nc(-c2ccccc2)c2cc(Cl)ccc2n1 | 3.98 µM [falling, partial curve, poor fit] | 3.16 µM [rising, full curve] |
| Nc1c(NCCCN2CCOCC2)c2ccccc2oc1=O | 5.17 µM [falling, full curve] | – |
| N#Cc1c2c(c(Nc3ccc(O)cc3)n3c1nc1ccccc13)CCC2 | 18.4 µM [falling, single point] | – |
| O=[N+]([O-])c1ccc(N=Nc2c(O)[nH]c3ccc(F)cc23)cc1 | 0.0891 µM [rising, full curve, poor fit] | – |
| CC1CCCN(C(=O)c2cccc(S(=O)(=O)Nc3cc(C(F)(F)F)ccc3Cl)c2)C1 (stereo unspecified) | 29.1 µM [falling, single point] | – |
| Cc1ccccc1NC1=C/C(=N\S(=O)(=O)c2ccc(C(=O)O)cc2)c2ccccc2C1=O | 5.01 µM [falling, full curve, poor fit] | – |
| CCCC1(C(=O)OCC)NC(c2cc(OC)c(OC)c(OC)c2)C2C(=O)N(CC)C(=O)C21 (stereo unspecified) | 5.8 µM [rising, full curve, poor fit] | – |
| O=[N+]([O-])c1ccc(N/N=C\c2ccccc2OCc2ccccc2)cc1 | 9.2 µM [rising, partial curve] | – |
| CC1CC(C)CN(CCCNC(=O)CCNC(=O)Cn2cnc3ccccc3c2=O)C1 (stereo unspecified) | 0.112 µM [rising, full curve, poor fit] | – |
| CSc1ccccc1NC(=O)COc1ccccc1C | 35.5 µM [falling, single point] | – |
| O=C1CCCCCN1Sc1ccccc1 | 35.5 µM [rising, single point] | 25.1 µM [falling, single point] |
| COc1cccc(C(=O)Nc2cccc(OCC(=O)O)c2)c1 | 16.4 µM [falling, single point] | – |
| CCN1C(=O)NC2=C(C(=O)c3ccccc32)C1c1ccccc1F (stereo unspecified) | 0.164 µM [falling, full curve, poor fit] | – |
| Cc1cc(C)cc(N(CC(=O)NC2CCCC2)C(=O)CCC(=O)Nc2cc(C)ccn2)c1 | 4.47 µM [falling, single point] | – |
| O=C(NC(=S)Nn1cnnc1)c1ccccc1Br | 0.708 µM [falling, full curve, poor fit] | – |
| COc1cc(NC(=O)CC(C)S(=O)(=O)c2cc3c(cc2C)NC(=O)CO3)cc(OC)c1OC (stereo unspecified) | 11.2 µM [rising, partial curve, poor fit] | – |
| O=C(N/N=C/c1cccs1)C(=O)Nc1cccc(Cl)c1 | 11.2 µM [falling, partial curve] | – |
| O=C(Oc1ccc(F)cc1)c1cccnc1 | 15.8 µM [rising, single point] | – |

| SMILES | AC50 [1] | AC50 [2] |
| --- | --- | --- |
| COc1ccc(Cl)c(OC)c1C(=O)NC(=O)Nc1nc(C)nc(C)n1 | 35.5 µM [falling, partial curve, poor fit] | – |
| CCn1cc(C(=O)OCC(=O)c2cc(C)n(-c3ccccc3F)c2C)c(=O)c2ccc(C)nc21 | 4.11 µM [rising, full curve, poor fit] | – |
| O=c1c(Cl)c(NCCCO)cnn1-c1nc2ccccc2[nH]1 | 7.08 µM [falling, full curve] | – |
| Cc1cc(C(=O)NNC(=O)c2ccccc2[N+](=O)[O-])c(C)o1 | 5.17 µM [falling, partial curve] | – |
| Cc1ccccc1NC(=O)CN1CCC(C(=O)c2ccc3c(c2)OCCO3)CC1 | 35.5 µM [falling, single point] | – |
| Cn1c(SCC(=O)O)nc2ccccc2c1=O | 15.8 µM [falling, partial curve, poor fit] | – |
| COc1ccc(N(C(=O)Nc2ccc(Cl)cc2)C2=NCCC2)cc1 | 8.2 µM [rising, partial curve, poor fit] | – |
| Cc1ccc(NC(=O)c2cc(S(=O)(=O)N3CCCCC3)cs2)cc1 | 2.59 µM [falling, full curve] | – |
| O=C(NNC(=S)Nc1ccccc1)c1cc(Br)ccc1Cl | 0.316 µM [rising, partial curve, poor fit] | – |
| CN(C)/C=C/c1c([N+](=O)[O-])c2ccc(O)cc2n1-c1ccccc1 | 17.8 µM [falling, partial curve, poor fit] | – |
| COC(=O)c1sc(N2C(=O)C(=O)/C(=C(/O)c3ccccc3)C2c2ccco2)nc1C (stereo unspecified) | 0.731 µM [rising, full curve, poor fit] | – |
| CC(C)(C)c1csc(N/N=C/c2cccnc2)n1 | 22.4 µM [falling, single point] | – |
| COC(=O)c1cn(C(=O)/C=C/c2ccc(OC)c(OC)c2)c2ccccc12 | 31.6 µM [falling, single point] | – |
| CCCn1c(=O)c2c(c3ccccc31)OC(C)C(=O)N2 (stereo unspecified) | 6.51 µM [rising, single point] | – |
| CC1CN(CC(O)COc2ccccc2C(C)(C)C)CC(C)O1 (stereo unspecified) | 29.1 µM [falling, single point] | – |
| Cc1c(C(=O)N/N=C/c2ccncc2)no[n+]1[O-] | 35.5 µM [rising, single point] | – |
| O=[N+]([O-])c1ccc(COn2nnc3ccccc32)cc1 | 1.78 µM [rising, partial curve, poor fit] | – |
| C/C(=N/NC(=O)c1cc2ccccc2cc1O)C1C(=O)c2ccccc2C1=O | 0.103 µM [falling, full curve] | – |
| COc1ccc(/C=N/Nc2cc(OC)ncn2)cc1 | 3.26 µM [rising, single point] | – |
| COc1ccc(C(=O)Nn2c(SCC(=O)NCc3ccco3)nc3ccccc3c2=O)cc1 | 3.98 µM [falling, partial curve] | – |
| COCCN(C(=O)CN1CCc2ccccc2C1)c1c(N)n(Cc2ccccc2)c(=O)[nH]c1=O | 35.5 µM [falling, single point] | – |

Retrieved by compound from the list above:

| SMILES | AC50 [1] | AC50 [2] |
| --- | --- | --- |
| COC(=O)c1sc(N2C(=O)C(=O)/C(=C(/O)c3ccccc3)C2c2ccco2)nc1C (stereo unspecified) | 0.731 µM [rising, full curve, poor fit] | – |
| COc1ccc(Cl)c(OC)c1C(=O)NC(=O)Nc1nc(C)nc(C)n1 | 35.5 µM [falling, partial curve, poor fit] | – |
| Cc1ccc(NC(=O)c2cc(S(=O)(=O)N3CCCCC3)cs2)cc1 | 2.59 µM [falling, full curve] | – |
| CC1CN(CC(O)COc2ccccc2C(C)(C)C)CC(C)O1 (stereo unspecified) | 29.1 µM [falling, single point] | – |

The listing continues.

| SMILES | AC50 [1] | AC50 [2] |
| --- | --- | --- |
| COc1ccccc1NS(=O)(=O)NC(=O)c1c(C)[nH]c2ccccc12 | 20 µM [falling, partial curve, poor fit] | – |
| O=C(c1ccccc1)c1c(O)cc(-c2ccccc2)oc1=O | 11.6 µM [falling, partial curve] | – |
| O=C(Nc1ccc(S(=O)(=O)N2CCCC2)cc1)c1ccc2c(=O)n3c(nc2c1)CCCCC3 | 29.1 µM [falling, single point] | – |
| COC(=O)c1cc(CNC(=O)c2ccc(N3CCCC3)c([N+](=O)[O-])c2)ccc1OC | 7.08 µM [rising, partial curve, poor fit] | – |
| CCN1C(=O)C(CC(=O)Nc2ccccc2)S/C1=N\c1ccccn1 (stereo unspecified) | 1.26 µM [rising, full curve] | – |
| COc1ccccc1-n1cnnc1SCC(=O)Nc1ncc(Cl)cc1Cl | 12.6 µM [falling, partial curve] | – |
| Cc1ccc(NC(=O)c2ccc(S(=O)(=O)N3CCC(C)CC3)cc2)nc1 | 20.6 µM [falling, single point] | – |
| Cc1ccn2c(c1)nc(=O)c1cc(S(=O)(=O)N3CCCCC3)ccc12 | 3.98 µM [rising, full curve, poor fit] | – |
| COC(=O)C1C(c2ccc(OC)cc2)Nc2nnc(C(F)(F)F)n2C1(C)O (stereo unspecified) | 12.6 µM [falling, single point] | – |
| C=C(C)CSc1nc2c(c(=O)[nH]c(=O)n2C)n1CCC(C)C | 29.1 µM [rising, single point] | – |
| COc1ccc2nc(NC(=O)Cn3cnc4ccccc4c3=O)sc2c1 | 2.51 µM [falling, partial curve, poor fit] | – |
| CCc1ccc(NC(=O)Cc2c(C(=O)O)n(C)c3ccccc23)cc1 | 0.708 µM [rising, full curve] | – |
| Cc1cccc(C)c1NC1=NC(C)(C)N=C(N)N1 | 22.4 µM [rising, partial curve, poor fit] | – |
| Cc1c(CCC(=O)N[C@@H](C)C(=O)O)c(=O)oc2cc3oc4c(c3cc12)CCCC4 | 3.55 µM [rising, single point] | 8.91 µM [falling, partial curve] |
| CCOC(=O)c1c(NC(=O)Nc2ccc(F)cc2)sc2c1CCN(C)C2 | 5.01 µM [rising, single point] | – |
| COC(=O)c1ccccc1NC(=S)NC(NC(=O)c1ccco1)C(Cl)(Cl)Cl (stereo unspecified) | 7.94 µM [falling, partial curve] | – |
| CC1=NN(C(=O)c2csc(C)c2C)C(O)(C(F)(F)F)C1 (stereo unspecified) | 23.1 µM [falling, partial curve, poor fit] | – |
| O=C(O)c1cc([N+](=O)[O-])ccc1C(=O)Nc1cccc([N+](=O)[O-])c1 | 6.31 µM [rising, full curve, poor fit] | – |
| O=C(COCc1ccccc1)N[C@@H]1c2ccccc2CC[C@H]1OCc1ccccc1 | – | 16.4 µM [falling, single point] |
| COc1cccc(N=Nc2c(N)[nH]n3c(=O)cc(-c4ccccc4)nc23)c1 | 0.355 µM [falling, full curve, poor fit] | – |
| O=c1c(-c2ccccc2)nc(-c2ccccc2)cn1O | 3.55 µM [rising, single point] | – |
